The values below come from publication PMC3485120.

Results are given in words; binding and its absence hold for the method and conditions named. Binding seen in cells or lysates may run through a third protein. Binding calls can cover weak binding; strength is not graded here. Tags and fused reporters may be left off the sequences shown.

Experiment [1] deals with T1, Set3-HA fusion protein (S. pombe) (UniProt Q10362).
T1 sequence: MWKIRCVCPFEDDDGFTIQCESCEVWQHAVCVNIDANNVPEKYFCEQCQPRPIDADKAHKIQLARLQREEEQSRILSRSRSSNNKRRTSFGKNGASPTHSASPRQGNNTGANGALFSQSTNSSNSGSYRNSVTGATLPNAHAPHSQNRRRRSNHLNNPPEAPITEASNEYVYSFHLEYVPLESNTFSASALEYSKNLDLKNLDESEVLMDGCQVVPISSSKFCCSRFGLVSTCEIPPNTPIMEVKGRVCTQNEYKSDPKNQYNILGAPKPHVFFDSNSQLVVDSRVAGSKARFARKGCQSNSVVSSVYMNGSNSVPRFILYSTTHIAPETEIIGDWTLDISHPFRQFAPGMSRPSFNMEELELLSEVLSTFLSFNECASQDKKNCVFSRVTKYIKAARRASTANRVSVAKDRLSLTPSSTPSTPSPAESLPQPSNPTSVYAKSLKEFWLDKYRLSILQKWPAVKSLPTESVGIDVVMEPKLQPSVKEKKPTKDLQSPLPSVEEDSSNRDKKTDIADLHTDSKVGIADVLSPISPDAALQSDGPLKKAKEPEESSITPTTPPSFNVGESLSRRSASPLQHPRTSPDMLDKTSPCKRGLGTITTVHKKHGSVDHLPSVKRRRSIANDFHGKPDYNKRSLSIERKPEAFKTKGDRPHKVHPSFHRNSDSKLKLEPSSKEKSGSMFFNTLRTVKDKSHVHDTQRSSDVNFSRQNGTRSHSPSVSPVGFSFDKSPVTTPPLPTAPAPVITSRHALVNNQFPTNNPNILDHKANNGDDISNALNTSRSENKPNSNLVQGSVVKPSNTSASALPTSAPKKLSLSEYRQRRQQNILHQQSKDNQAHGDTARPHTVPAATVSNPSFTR
In words: co-IP; anti-HA (HA.11) on Protein G Dynabeads, S. pombe extracts lysed under native conditions in extraction buffer (1% IGEPAL CA630, 150 mM NaCl, 50 mM Tris-HCl pH 8.0, 2 mM EDTA); immunoblot with anti-Myc (9E10). (Immunoblotting shows a protein as a band on a membrane.)

Experiment [2] addresses T2, Hif2-HA fusion protein (S. pombe) (UniProt O74845).
T2 sequence: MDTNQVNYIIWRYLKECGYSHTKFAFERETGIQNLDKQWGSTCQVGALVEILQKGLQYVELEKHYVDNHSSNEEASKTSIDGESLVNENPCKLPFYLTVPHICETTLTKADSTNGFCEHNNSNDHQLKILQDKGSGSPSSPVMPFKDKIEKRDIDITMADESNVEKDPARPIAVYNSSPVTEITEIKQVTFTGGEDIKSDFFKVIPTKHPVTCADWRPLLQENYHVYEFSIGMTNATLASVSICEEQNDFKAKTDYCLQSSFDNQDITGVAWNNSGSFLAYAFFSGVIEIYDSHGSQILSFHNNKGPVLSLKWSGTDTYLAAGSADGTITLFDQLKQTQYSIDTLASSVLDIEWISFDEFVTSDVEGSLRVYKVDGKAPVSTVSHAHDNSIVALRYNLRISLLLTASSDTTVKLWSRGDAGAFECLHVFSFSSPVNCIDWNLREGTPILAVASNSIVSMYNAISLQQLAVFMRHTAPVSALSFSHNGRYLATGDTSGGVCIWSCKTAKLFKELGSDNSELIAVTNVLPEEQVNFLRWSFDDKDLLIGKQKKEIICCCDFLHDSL
The experiment is described as above.

With Hos2-Myc fusion protein (S. pombe), the binding entry in experiment [1] and in experiment [2] was “binds” each time.
